Reference: patent US8168638B2, “Pyrazinecarboxamide derivatives and plant disease controlling agents containing the same” (Nihon Nohyaku Co., Ltd., priority 2005, dated 2012)
Some entries share one result that the patent states for a list of compounds.

Experiments:
Type in all cases: in vivo
[1] = tested on: Blumeria graminis f. sp. hordei; assay: Test on the controlling effect against powdery mildew of barley plant; conditions: barley plant (Kantoh No. 6), foliar application, application rate 50 mL, 7 days after inoculation
Venturia inaequalis = assay: Test on the controlling effect against apple tree scab; conditions: apple seedling (Ohrin), foliar application, application rate 50 mL, 14 days after inoculation
Puccinia recondita = assay: Test on the controlling effect against brown leaf rust of wheat plant; conditions: wheat plant (Hokushin), foliar application, application rate 50 mL, 7 days after inoculation
Botrytics cinerea = assay: Test on the controlling effect against gray mold of cucumber plant; conditions: cucumber plant (Suyou), foliar application, active-ingredient concentration 200 ppm, application rate 50 mL, 7 days after inoculation
[2] = active-ingredient concentration 50 ppm
[3] = active-ingredient concentration 200 ppm
[4] = active-ingredient concentration 10 ppm

Cc1ccc(-c2ccccc2NC(=O)c2nccnc2C(F)(F)F)cc1Cl [3-27]
10 (100% in protective value): controlling effect assessed according to the criteria of judgment [1, 2] | controlling effect assessed according to the criteria of judgment [1, 3] | controlling effect assessed according to the criteria of judgment (protective value) (Venturia inaequalis; [4]) | controlling effect assessed according to the criteria of judgment (protective value) (Venturia inaequalis; [2]) | controlling effect assessed according to the criteria of judgment (Puccinia recondita; [2]) | controlling effect assessed according to the criteria of judgment (Puccinia recondita; [3]) | controlling effect assessed according to the criteria of judgment (protective value) (Botrytics cinerea)

O=C(Nc1ccccc1-c1ccc(C(F)(F)F)c(Cl)c1)c1nccnc1C(F)(F)F [3-28]
10 (100% in protective value): controlling effect assessed according to the criteria of judgment [1, 2] | controlling effect assessed according to the criteria of judgment [1, 3] | controlling effect assessed according to the criteria of judgment (protective value) (Venturia inaequalis; [4]) | controlling effect assessed according to the criteria of judgment (protective value) (Venturia inaequalis; [2]) | controlling effect assessed according to the criteria of judgment (Puccinia recondita; [2]) | controlling effect assessed according to the criteria of judgment (Puccinia recondita; [3]) | controlling effect assessed according to the criteria of judgment (protective value) (Botrytics cinerea)

O=C(Nc1ccccc1-c1cc(F)cc(F)c1)c1nccnc1C(F)(F)F [3-33]
10 (100% in protective value): controlling effect assessed according to the criteria of judgment [1, 2] | controlling effect assessed according to the criteria of judgment [1, 3] | controlling effect assessed according to the criteria of judgment (protective value) (Venturia inaequalis; [4]) | controlling effect assessed according to the criteria of judgment (protective value) (Venturia inaequalis; [2]) | controlling effect assessed according to the criteria of judgment (Puccinia recondita; [2]) | controlling effect assessed according to the criteria of judgment (Puccinia recondita; [3]) | controlling effect assessed according to the criteria of judgment (protective value) (Botrytics cinerea)

O=C(Nc1ccccc1-c1cc(Cl)cc(Cl)c1)c1nccnc1C(F)(F)F [3-34]
10 (100% in protective value): controlling effect assessed according to the criteria of judgment [1, 2] | controlling effect assessed according to the criteria of judgment [1, 3] | controlling effect assessed according to the criteria of judgment (protective value) (Venturia inaequalis; [4]) | controlling effect assessed according to the criteria of judgment (protective value) (Venturia inaequalis; [2]) | controlling effect assessed according to the criteria of judgment (Puccinia recondita; [2]) | controlling effect assessed according to the criteria of judgment (Puccinia recondita; [3]) | controlling effect assessed according to the criteria of judgment (protective value) (Botrytics cinerea)

O=C(Nc1ccccc1-c1ccc(Cl)cc1F)c1nccnc1C(F)(F)F [3-36]
10 (100% in protective value): controlling effect assessed according to the criteria of judgment [1, 2] | controlling effect assessed according to the criteria of judgment [1, 3] | controlling effect assessed according to the criteria of judgment (protective value) (Venturia inaequalis; [4]) | controlling effect assessed according to the criteria of judgment (protective value) (Venturia inaequalis; [2]) | controlling effect assessed according to the criteria of judgment (Puccinia recondita; [3]) | controlling effect assessed according to the criteria of judgment (protective value) (Botrytics cinerea)

CCOC(=O)c1ccc(-c2ccccc2NC(=O)c2nccnc2C(F)(F)F)cc1Cl [3-37]
10 (100% in protective value): controlling effect assessed according to the criteria of judgment [1, 2] | controlling effect assessed according to the criteria of judgment [1, 3] | controlling effect assessed according to the criteria of judgment (protective value) (Venturia inaequalis; [4]) | controlling effect assessed according to the criteria of judgment (protective value) (Venturia inaequalis; [2]) | controlling effect assessed according to the criteria of judgment (Puccinia recondita; [2]) | controlling effect assessed according to the criteria of judgment (Puccinia recondita; [3]) | controlling effect assessed according to the criteria of judgment (protective value) (Botrytics cinerea)

O=C(Nc1ccccc1-c1ccc(F)cc1F)c1nccnc1C(F)(F)F [3-39]
10 (100% in protective value): controlling effect assessed according to the criteria of judgment [1, 2] | controlling effect assessed according to the criteria of judgment [1, 3] | controlling effect assessed according to the criteria of judgment (protective value) (Venturia inaequalis; [4]) | controlling effect assessed according to the criteria of judgment (protective value) (Venturia inaequalis; [2]) | controlling effect assessed according to the criteria of judgment (Puccinia recondita; [3]) | controlling effect assessed according to the criteria of judgment (protective value) (Botrytics cinerea)

O=C(Nc1ccccc1-c1ccc(Cl)cc1Cl)c1nccnc1C(F)(F)F [3-40]
10 (100% in protective value): controlling effect assessed according to the criteria of judgment [1, 2] | controlling effect assessed according to the criteria of judgment [1, 3] | controlling effect assessed according to the criteria of judgment (protective value) (Venturia inaequalis; [2]) | controlling effect assessed according to the criteria of judgment (Puccinia recondita; [2]) | controlling effect assessed according to the criteria of judgment (Puccinia recondita; [3]) | controlling effect assessed according to the criteria of judgment (protective value) (Botrytics cinerea)

O=C(Nc1ccccc1-c1ccc(-c2ccc(Br)cc2)cc1)c1nccnc1C(F)(F)F [3-43]
10 (100% in protective value): controlling effect assessed according to the criteria of judgment [1, 2] | controlling effect assessed according to the criteria of judgment [1, 3] | controlling effect assessed according to the criteria of judgment (protective value) (Venturia inaequalis; [2]) | controlling effect assessed according to the criteria of judgment (Puccinia recondita; [2]) | controlling effect assessed according to the criteria of judgment (Puccinia recondita; [3]) | controlling effect assessed according to the criteria of judgment (protective value) (Botrytics cinerea)

Cc1cc(Cl)ccc1-c1ccccc1NC(=O)c1nccnc1C(F)(F)F [3-51]
10 (100% in protective value): controlling effect assessed according to the criteria of judgment [1, 3] | controlling effect assessed according to the criteria of judgment (protective value) (Venturia inaequalis; [2]) | controlling effect assessed according to the criteria of judgment (Puccinia recondita; [3]) | controlling effect assessed according to the criteria of judgment (protective value) (Botrytics cinerea)

Cc1cc(F)ccc1-c1ccccc1NC(=O)c1nccnc1C(F)(F)F [3-52]
10 (100% in protective value): controlling effect assessed according to the criteria of judgment [1, 3] | controlling effect assessed according to the criteria of judgment (protective value) (Venturia inaequalis; [2]) | controlling effect assessed according to the criteria of judgment (Puccinia recondita; [3]) | controlling effect assessed according to the criteria of judgment (protective value) (Botrytics cinerea)

Cc1ccc(-c2ccccc2NC(=O)c2nccnc2C(F)(F)F)cc1F [3-61]
10 (100% in protective value): controlling effect assessed according to the criteria of judgment [1, 2] | controlling effect assessed according to the criteria of judgment [1, 3] | controlling effect assessed according to the criteria of judgment (protective value) (Venturia inaequalis; [4]) | controlling effect assessed according to the criteria of judgment (protective value) (Venturia inaequalis; [2]) | controlling effect assessed according to the criteria of judgment (Puccinia recondita; [2]) | controlling effect assessed according to the criteria of judgment (Puccinia recondita; [3]) | controlling effect assessed according to the criteria of judgment (protective value) (Botrytics cinerea)

O=C(Nc1ccccc1-c1ccc(C(F)F)c(F)c1)c1nccnc1C(F)(F)F [3-63]
10 (100% in protective value): controlling effect assessed according to the criteria of judgment [1, 2] | controlling effect assessed according to the criteria of judgment [1, 3] | controlling effect assessed according to the criteria of judgment (protective value) (Venturia inaequalis; [4]) | controlling effect assessed according to the criteria of judgment (protective value) (Venturia inaequalis; [2]) | controlling effect assessed according to the criteria of judgment (Puccinia recondita; [2]) | controlling effect assessed according to the criteria of judgment (Puccinia recondita; [3]) | controlling effect assessed according to the criteria of judgment (protective value) (Botrytics cinerea)

O=C(Nc1ccccc1-c1ccc(F)c(C(F)F)c1)c1nccnc1C(F)(F)F [3-64]
10 (100% in protective value): controlling effect assessed according to the criteria of judgment [1, 2] | controlling effect assessed according to the criteria of judgment [1, 3] | controlling effect assessed according to the criteria of judgment (protective value) (Venturia inaequalis; [4]) | controlling effect assessed according to the criteria of judgment (protective value) (Venturia inaequalis; [2]) | controlling effect assessed according to the criteria of judgment (Puccinia recondita; [2]) | controlling effect assessed according to the criteria of judgment (Puccinia recondita; [3]) | controlling effect assessed according to the criteria of judgment (protective value) (Botrytics cinerea)

O=C(Nc1ccccc1-c1ccc(C(F)F)c(Cl)c1)c1nccnc1C(F)(F)F [3-65]
10 (100% in protective value): controlling effect assessed according to the criteria of judgment [1, 2] | controlling effect assessed according to the criteria of judgment [1, 3] | controlling effect assessed according to the criteria of judgment (protective value) (Venturia inaequalis; [4]) | controlling effect assessed according to the criteria of judgment (protective value) (Venturia inaequalis; [2]) | controlling effect assessed according to the criteria of judgment (Puccinia recondita; [2]) | controlling effect assessed according to the criteria of judgment (Puccinia recondita; [3]) | controlling effect assessed according to the criteria of judgment (protective value) (Botrytics cinerea)

O=C(Nc1ccccc1-c1ccc(OC(F)(F)F)c(F)c1)c1nccnc1C(F)(F)F [3-69]
10 (100% in protective value): controlling effect assessed according to the criteria of judgment [1, 2] | controlling effect assessed according to the criteria of judgment [1, 3] | controlling effect assessed according to the criteria of judgment (protective value) (Venturia inaequalis; [4]) | controlling effect assessed according to the criteria of judgment (protective value) (Venturia inaequalis; [2]) | controlling effect assessed according to the criteria of judgment (Puccinia recondita; [2]) | controlling effect assessed according to the criteria of judgment (Puccinia recondita; [3]) | controlling effect assessed according to the criteria of judgment (protective value) (Botrytics cinerea)
